Source: US20110064733A1
Results are given in words; binding and its absence hold for the method and conditions named. Some results given as binding are weak or reduced against the parent protein; the word gives no strength.

The chains behind the UniProt entries cited, without tags or fusion partners. Residues count along the entry.
UniProt P15941, residues 24-1097: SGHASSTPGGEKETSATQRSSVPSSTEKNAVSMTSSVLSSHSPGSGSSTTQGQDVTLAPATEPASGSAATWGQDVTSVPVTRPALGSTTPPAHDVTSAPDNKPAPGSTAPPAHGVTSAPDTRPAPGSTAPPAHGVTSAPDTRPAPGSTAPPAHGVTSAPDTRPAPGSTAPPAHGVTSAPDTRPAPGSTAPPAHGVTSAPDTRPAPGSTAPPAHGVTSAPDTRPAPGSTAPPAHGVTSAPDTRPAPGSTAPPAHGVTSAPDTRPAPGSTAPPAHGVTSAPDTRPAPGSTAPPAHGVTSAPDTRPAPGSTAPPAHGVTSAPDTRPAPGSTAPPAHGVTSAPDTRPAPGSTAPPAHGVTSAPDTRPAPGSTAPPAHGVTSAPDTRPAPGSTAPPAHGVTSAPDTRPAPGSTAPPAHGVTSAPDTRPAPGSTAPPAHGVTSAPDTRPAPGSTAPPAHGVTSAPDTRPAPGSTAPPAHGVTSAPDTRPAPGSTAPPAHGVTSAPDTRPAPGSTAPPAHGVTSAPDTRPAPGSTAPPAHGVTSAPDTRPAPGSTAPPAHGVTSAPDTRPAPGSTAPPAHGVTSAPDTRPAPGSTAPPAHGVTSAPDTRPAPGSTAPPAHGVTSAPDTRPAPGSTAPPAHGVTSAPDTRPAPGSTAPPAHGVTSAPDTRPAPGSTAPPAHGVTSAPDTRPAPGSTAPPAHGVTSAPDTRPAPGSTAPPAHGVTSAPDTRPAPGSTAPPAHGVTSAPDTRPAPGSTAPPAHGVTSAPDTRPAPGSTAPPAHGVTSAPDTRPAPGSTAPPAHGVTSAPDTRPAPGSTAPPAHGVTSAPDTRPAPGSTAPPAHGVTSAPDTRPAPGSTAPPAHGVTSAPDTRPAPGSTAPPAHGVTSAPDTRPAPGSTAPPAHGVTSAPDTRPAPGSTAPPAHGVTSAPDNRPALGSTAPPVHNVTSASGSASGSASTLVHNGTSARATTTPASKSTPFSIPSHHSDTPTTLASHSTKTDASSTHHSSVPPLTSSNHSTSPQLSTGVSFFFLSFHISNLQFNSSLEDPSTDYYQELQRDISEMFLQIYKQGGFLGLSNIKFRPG

Biological target: shed Muc1 having the CA6 epitope (ovarian cancer patient serum; CA15-3 standards) (human) (UniProt P15941)
Assay: sandwich ELISA: plated DS6, biotinylated DS6 tracer, streptavidin-HRP; ovarian cancer patient serum or CA15-3 standards

B1: murine anti-CA6 monoclonal antibody DS6 (antibody, mouse IgG1, V domains shown)
VH: QAYLQQSGAELVRSGASVKMSCKASGYTFTSYNMHWVKQTPGQGLEWIGYIYPGNGATNYNQKFKGKATLTADPSSSTAYMQISSLTSEDSAVYFCARGDSVPFAYWGQGTLVTVSA
VL: QIVLTQSPAIMSASPGEKVTITCSAHSSVSFMHWFQQKPGTSPKLWIYSTSSLASGVPARFGGSGSGTSYSLTISRMEAEDAATYYCQQRSSFPLTFGAGTKLELKR
- binding: binds
